Data as given in PubChem BioAssay AID1259425 (University of Nebraska Medical Center, 2018).

Test: 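Find knockdowns that reproduce the gene expression pattern seen when KSR1 is lost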 (primary screen)
Cell system: HCT116 human colon cancer cells
Reagent: siRNA pool against human genes, 50 nM siRNA
Measurement: 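mRNA of six signature genes measured together by branched-DNA assay after 50 nM siRNA pool, blank removed, divided by geometric mean of two housekeeping genes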
Direction: BNIP3L mRNA: higher = more BNIP3L transcript after knockdown; NDRG1 mRNA: higher = more NDRG1 transcript after knockdown
Here is one part, drawn at random, of about 14,000 deposited reagents. Not all columns of the deposit are shown. The record does not give: the time to read-out.

What is on record for CBFB (core-binding factor subunit beta)?
BNIP3L mRNA, set 1: 0.0193; NDRG1 mRNA, set 1: 0.0906

For HNRNPK (heterogeneous nuclear ribonucleoprotein K), what was measured?
BNIP3L mRNA, set 1: 0.139; NDRG1 mRNA, set 1: 0.208

For TEKT2 (tektin 2), what was measured?
BNIP3L mRNA, set 1: 0.13; NDRG1 mRNA, set 1: 0.0872

What is on record for MPIG6B (megakaryocyte and platelet inhibitory receptor G6b)?
BNIP3L mRNA, set 1: 0.11; NDRG1 mRNA, set 1: 0.215

For PLAAT3 (phospholipase A and acyltransferase 3), how do the results read?
BNIP3L mRNA, set 1: 0.13; NDRG1 mRNA, set 1: 0.0689

Which result is listed for MARCKSL1 (MARCKS like 1)?
BNIP3L mRNA, set 1: 0.175; NDRG1 mRNA, set 1: 0.178

What did the screen give for APPBP2 (amyloid beta precursor protein binding protein 2)?
BNIP3L mRNA, set 1: 0.0961; NDRG1 mRNA, set 1: 0.165

With ZNF174 (zinc finger protein 174), what was measured?
BNIP3L mRNA, set 1: 0.0699; NDRG1 mRNA, set 1: 0.145

How did the screen score MTFP1 (mitochondrial fission process 1)?
BNIP3L mRNA, set 1: 0.0645; NDRG1 mRNA, set 1: 0.0811

With COMMD2 (COMM domain containing 2), what does the deposit list?
BNIP3L mRNA, set 1: 0.106; NDRG1 mRNA, set 1: 0.0901

For CDIPT (CDP-diacylglycerol--inositol 3-phosphatidyltransferase), what was measured?
BNIP3L mRNA, set 1: 0.19; NDRG1 mRNA, set 1: 0.242

For TAF4 (TATA-box binding protein associated factor 4), how do the results read?
BNIP3L mRNA, set 1: 0.0796; NDRG1 mRNA, set 1: 0.0656

2 entries from above, reformatted.
gene knocked down | BNIP3L mRNA, set 1 | NDRG1 mRNA, set 1
MPIG6B (megakaryocyte and platelet inhibitory receptor G6b) | 0.11 | 0.215
PLAAT3 (phospholipase A and acyltransferase 3) | 0.13 | 0.0689
